Several values for one entry are separate records, joined by “and”; a condition that tells them apart may be missing. Equal entries are not always repeated. The list shows a part of the results. Further columns of the screen follow, without active or inactive calls. Most of these compounds were active or inconclusive in the main read-out, so they are no random draw. The note in brackets gives the kind of curve behind each potency; many fits are weak.
Assay: qHTS Assay for Lipid Storage Modulators in Drosophila S3 Cells;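 for cell number change: cells counted by Cell Tracker Red CMTPX staining in the red channel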
Conditions: BODIPY lipid droplet fluorescence, 18-24 h; for cell number change: measured here: cell count max response, cells fed with added oleic acid
Method in brief: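 Laser-scanning cytometry quantifies lipid droplet accumulation (500–530 nm total intensity; droplet/cell object ratio) in oleic acid-fed (400 uM added) Drosophila S3 cells treated with a concentration series. 20 uM Triacsin C defined 100% inhibition.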

[1] = measured here: lipid fluorescence (Fed channel) AC50, cells fed with added oleic acid
[2] = measured here: cell number channel AC50, cells fed with added oleic acid

Compound	cell number change	AC50 [1]	AC50 [2]
CN(CCc1ccccn1)C(=O)CN(C)S(=O)(=O)c1ccc2c(c1)c(=O)n(C)c(=O)n2C	7.36%		
CN(C(=O)C(C)(C)C)C1c2c(ccc3ccccc23)OCC1CO (configuration not stated)	-27.7%	29.1 µM [falling, single point]	
Nc1ccc2oc(-c3cc(Br)ccc3Cl)nc2c1	-5.1%	1.64 µM [rising, full curve, poor fit]	
CC(=O)Nc1cccc(OCCCNS(=O)(=O)c2ccc(F)cc2)c1	-41.1%	7.31 µM [falling, partial curve]	6.51 µM [falling, full curve]
O=C(Nc1ccc(F)cc1F)c1ccc2c(=O)n3c(nc2c1)CCC3	-2.67%	29.1 µM [falling, single point]	
O=C(CN1CCCCC1)NC(=O)NCc1ccccc1	-7.33%	29.1 µM [falling, single point]	
COC(=O)NC(=S)Nc1ccc(Oc2ccc(Cl)cc2)c(Cl)c1	2.89%	2.06 µM [rising, partial curve]	
COc1ccc(NC(=O)Nc2cccc(C(F)(F)F)c2)cn1			0.58 µM [rising, single point]
CC(=O)Nc1ccccc1NS(=O)(=O)c1ccc(Cl)cc1	73.5%		9.2 µM [rising, partial curve]
Oc1c(CN2CCOCC2)cc(COCc2ccccc2)c2cccnc12	-10%	16.4 µM [falling, single point]	
COc1ccc(NS(=O)(=O)c2cc(NC(=O)c3ccco3)ccc2N2CCCCC2)cc1	-9.77%	4.61 µM [falling, single point]	
COc1ccccc1Oc1ccc(Oc2ccccc2OC)cc1	-9.65%	0.517 µM [falling, partial curve, poor fit]	
CN(C)/C=C/C(=O)c1ccc(Br)cc1	-40.1%	0.461 µM [falling, full curve]	29.1 µM [falling, single point]
Cc1nnsc1C(=O)NNS(=O)(=O)c1cc(C(F)(F)F)cc(C(F)(F)F)c1	-46.2%	18.4 µM [falling, single point]	29.1 µM [falling, single point]
COc1ccc(-c2nc(SCC(=O)N3CCOCC3)n[nH]2)cc1	30.1%		
O=C(c1ccc2snnc2c1)N1CCOCC1	-5.56%	0.13 µM [falling, single point]	
CC1=CC(=O)CC2C1(C)CCC(C)C2(C)CCC(C)CC(=O)O (configuration not stated)	-1.78%	0.00651 µM [falling, full curve, poor fit]	
COc1cccc(CNC(=O)Cc2c(C(=O)O)[nH]c3ccccc23)c1	-22.8%	6.51 µM [falling, single point]	6.51 µM [falling, single point]
CCCOc1ccc(C(=O)NC(=S)Nc2nc(C)c(C(=O)N(C)C)s2)cc1		6.51 µM [rising, single point]	1.84 µM [rising, partial curve, poor fit]
COc1cccc(C2=NOC(C(=O)Nc3c(C)n(C)n(-c4ccccc4)c3=O)C2)c1 (configuration not stated)	9.24%	0.411 µM [falling, full curve]	

Compound	cell number change	AC50 [1]	AC50 [2]
O=c1[nH]c2ccc(Br)cc2c(-c2ccccc2)c1N1CCOCC1	8.59%	6.51 µM [rising, partial curve]	2.59 µM [rising, single point]
O=C1CC(c2ccccc2)n2nc(N3C(=O)c4ccccc4C3=O)nc2N1 (configuration not stated)	-11.8%		
CS(=O)(=O)Nc1ccc(C(=O)CC(=O)Nc2ccc([N+](=O)[O-])cc2)cc1	3.23%	29.1 µM [rising, single point]	
Cc1cccc(NC(=O)c2ccc(OCc3c(C)noc3C)cc2)c1	5.56%	0.366 µM [rising, partial curve, poor fit]	
O=C(Nc1ccc(F)cc1)c1nsc(Cl)c1Cl	-17.8%	20.6 µM [falling, single point]	
O=C(CN1C(=O)C2CCCCC2C1=O)NC1CCCc2ccccc21 (configuration not stated)	-18.5%		
COCCNC(=O)C(=O)Nc1cc2c3c(c1)CC(=O)N3CCC2	-23.9%		
COc1ccc(Nc2nc3ccccc3n3cnnc23)cc1	-2.63%	6.51 µM [rising, single point]	
O=C(c1ccncc1)N1CCN(c2ccc3ccccc3n2)CC1	-6.15%		6.51 µM [falling, single point]
Cc1onc(-c2c(Cl)cccc2Cl)c1C(=O)N1CCOCC1	22.7%		
CS(=O)(=O)N1N=C(c2cccs2)CC1c1ccccc1F (configuration not stated)	8.04%	0.58 µM [falling, full curve]	
Cc1occc1C(=O)N1CCCC(Nc2ccc(C(C)C)cc2)C1 (configuration not stated)	-12.8%	11.2 µM [falling, single point]	
CN1C(=S)N(c2cccnc2)C(=O)/C1=C\c1ccc(N(C)C)cc1	-57%		
Cc1cc(OCC(=O)N2CCOCC2)c(C(C)C)cc1Cl	188%	29.1 µM [rising, single point]	29.1 µM [rising, single point]
COc1cc(OC)c(C(=O)Nc2cccc3ccccc23)cc1OC	-4.4%	29.1 µM [falling, single point]	
COc1ccc(CCNC(=O)CCSc2nc(-c3ccco3)cc(C(F)(F)F)n2)cc1		29.1 µM [falling, single point]	
O=C(C(Cc1ccccc1)n1cccc1)N1CCN(C2CCCCC2)CC1 (configuration not stated)		0.651 µM [falling, single point]	
Cc1ccc(N(CC(=O)NC2CCCC2)C(=O)CNC(=O)c2cccs2)cc1C	-2.17%		
COc1ccc2c(c1[N+](=O)[O-])CCC/C2=N/OC(=O)c1cccc2ccccc12	30.7%	20.6 µM [rising, partial curve]	4.11 µM [rising, single point]
Cc1ccc(-c2cn(-c3ccccc3)c3[n+]2CCCS3)cc1	-54.3% and -41.5%	25.9 µM [falling, partial curve, poor fit] and 23.1 µM [falling, partial curve]	29.1 µM [falling, single point] and 25.9 µM [falling, partial curve]

Two compounds picked at random from the list so far:
Compound	cell number change	AC50 [1]	AC50 [2]
O=C(C(Cc1ccccc1)n1cccc1)N1CCN(C2CCCCC2)CC1 (configuration not stated)		0.651 µM [falling, single point]	
COc1cccc(CNC(=O)Cc2c(C(=O)O)[nH]c3ccccc23)c1	-22.8%	6.51 µM [falling, single point]	6.51 µM [falling, single point]

Reference: PubChem BioAssay AID2685 (National Center for Advancing Translational Sciences (NCATS), 2010)
